# Data: the supplement of paper PMC10849652
# The chains behind the UniProt entries cited, without tags or fusion partners. Where a name states a change or a piece, a line headed by the entry shows the natural chain unless it says otherwise.
# UniProt Q9Y657, whole entry, looked up: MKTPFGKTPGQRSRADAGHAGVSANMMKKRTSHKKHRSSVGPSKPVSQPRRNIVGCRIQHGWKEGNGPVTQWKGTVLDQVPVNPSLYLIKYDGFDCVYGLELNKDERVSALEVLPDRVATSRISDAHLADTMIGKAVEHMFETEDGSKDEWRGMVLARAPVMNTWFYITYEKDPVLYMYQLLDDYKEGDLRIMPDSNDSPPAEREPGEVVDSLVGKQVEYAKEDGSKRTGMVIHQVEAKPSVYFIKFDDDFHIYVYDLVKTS
# UniProt Q5W111: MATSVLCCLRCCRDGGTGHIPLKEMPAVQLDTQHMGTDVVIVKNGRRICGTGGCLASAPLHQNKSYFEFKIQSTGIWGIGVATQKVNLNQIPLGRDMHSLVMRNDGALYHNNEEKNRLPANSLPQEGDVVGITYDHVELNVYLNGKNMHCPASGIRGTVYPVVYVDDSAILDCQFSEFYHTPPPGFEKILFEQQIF
# UniProt Q9H2V7: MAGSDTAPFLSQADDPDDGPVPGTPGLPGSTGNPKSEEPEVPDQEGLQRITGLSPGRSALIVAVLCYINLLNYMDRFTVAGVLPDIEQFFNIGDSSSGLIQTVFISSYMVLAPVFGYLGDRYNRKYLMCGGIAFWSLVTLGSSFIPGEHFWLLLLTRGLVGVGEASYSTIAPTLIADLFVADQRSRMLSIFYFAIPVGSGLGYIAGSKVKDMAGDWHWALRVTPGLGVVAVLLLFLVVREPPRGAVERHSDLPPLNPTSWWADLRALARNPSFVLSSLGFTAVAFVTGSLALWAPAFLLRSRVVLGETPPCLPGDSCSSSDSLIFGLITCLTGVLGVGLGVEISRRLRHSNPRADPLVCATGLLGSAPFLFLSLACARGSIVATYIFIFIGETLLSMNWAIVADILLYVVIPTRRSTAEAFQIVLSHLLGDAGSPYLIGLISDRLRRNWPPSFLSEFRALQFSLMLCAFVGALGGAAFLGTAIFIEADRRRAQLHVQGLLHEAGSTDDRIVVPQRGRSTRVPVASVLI
# UniProt P16150: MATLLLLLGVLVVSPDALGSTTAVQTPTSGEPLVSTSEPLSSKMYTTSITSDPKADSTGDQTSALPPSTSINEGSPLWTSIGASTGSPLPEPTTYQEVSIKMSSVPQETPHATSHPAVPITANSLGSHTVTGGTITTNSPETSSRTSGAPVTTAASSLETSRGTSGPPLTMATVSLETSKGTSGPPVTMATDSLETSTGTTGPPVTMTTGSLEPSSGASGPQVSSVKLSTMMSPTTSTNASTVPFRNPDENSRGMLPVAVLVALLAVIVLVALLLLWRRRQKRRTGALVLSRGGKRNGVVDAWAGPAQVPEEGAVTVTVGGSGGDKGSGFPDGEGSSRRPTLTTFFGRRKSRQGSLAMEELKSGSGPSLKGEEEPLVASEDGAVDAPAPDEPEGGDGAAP
# UniProt Q9UQ35: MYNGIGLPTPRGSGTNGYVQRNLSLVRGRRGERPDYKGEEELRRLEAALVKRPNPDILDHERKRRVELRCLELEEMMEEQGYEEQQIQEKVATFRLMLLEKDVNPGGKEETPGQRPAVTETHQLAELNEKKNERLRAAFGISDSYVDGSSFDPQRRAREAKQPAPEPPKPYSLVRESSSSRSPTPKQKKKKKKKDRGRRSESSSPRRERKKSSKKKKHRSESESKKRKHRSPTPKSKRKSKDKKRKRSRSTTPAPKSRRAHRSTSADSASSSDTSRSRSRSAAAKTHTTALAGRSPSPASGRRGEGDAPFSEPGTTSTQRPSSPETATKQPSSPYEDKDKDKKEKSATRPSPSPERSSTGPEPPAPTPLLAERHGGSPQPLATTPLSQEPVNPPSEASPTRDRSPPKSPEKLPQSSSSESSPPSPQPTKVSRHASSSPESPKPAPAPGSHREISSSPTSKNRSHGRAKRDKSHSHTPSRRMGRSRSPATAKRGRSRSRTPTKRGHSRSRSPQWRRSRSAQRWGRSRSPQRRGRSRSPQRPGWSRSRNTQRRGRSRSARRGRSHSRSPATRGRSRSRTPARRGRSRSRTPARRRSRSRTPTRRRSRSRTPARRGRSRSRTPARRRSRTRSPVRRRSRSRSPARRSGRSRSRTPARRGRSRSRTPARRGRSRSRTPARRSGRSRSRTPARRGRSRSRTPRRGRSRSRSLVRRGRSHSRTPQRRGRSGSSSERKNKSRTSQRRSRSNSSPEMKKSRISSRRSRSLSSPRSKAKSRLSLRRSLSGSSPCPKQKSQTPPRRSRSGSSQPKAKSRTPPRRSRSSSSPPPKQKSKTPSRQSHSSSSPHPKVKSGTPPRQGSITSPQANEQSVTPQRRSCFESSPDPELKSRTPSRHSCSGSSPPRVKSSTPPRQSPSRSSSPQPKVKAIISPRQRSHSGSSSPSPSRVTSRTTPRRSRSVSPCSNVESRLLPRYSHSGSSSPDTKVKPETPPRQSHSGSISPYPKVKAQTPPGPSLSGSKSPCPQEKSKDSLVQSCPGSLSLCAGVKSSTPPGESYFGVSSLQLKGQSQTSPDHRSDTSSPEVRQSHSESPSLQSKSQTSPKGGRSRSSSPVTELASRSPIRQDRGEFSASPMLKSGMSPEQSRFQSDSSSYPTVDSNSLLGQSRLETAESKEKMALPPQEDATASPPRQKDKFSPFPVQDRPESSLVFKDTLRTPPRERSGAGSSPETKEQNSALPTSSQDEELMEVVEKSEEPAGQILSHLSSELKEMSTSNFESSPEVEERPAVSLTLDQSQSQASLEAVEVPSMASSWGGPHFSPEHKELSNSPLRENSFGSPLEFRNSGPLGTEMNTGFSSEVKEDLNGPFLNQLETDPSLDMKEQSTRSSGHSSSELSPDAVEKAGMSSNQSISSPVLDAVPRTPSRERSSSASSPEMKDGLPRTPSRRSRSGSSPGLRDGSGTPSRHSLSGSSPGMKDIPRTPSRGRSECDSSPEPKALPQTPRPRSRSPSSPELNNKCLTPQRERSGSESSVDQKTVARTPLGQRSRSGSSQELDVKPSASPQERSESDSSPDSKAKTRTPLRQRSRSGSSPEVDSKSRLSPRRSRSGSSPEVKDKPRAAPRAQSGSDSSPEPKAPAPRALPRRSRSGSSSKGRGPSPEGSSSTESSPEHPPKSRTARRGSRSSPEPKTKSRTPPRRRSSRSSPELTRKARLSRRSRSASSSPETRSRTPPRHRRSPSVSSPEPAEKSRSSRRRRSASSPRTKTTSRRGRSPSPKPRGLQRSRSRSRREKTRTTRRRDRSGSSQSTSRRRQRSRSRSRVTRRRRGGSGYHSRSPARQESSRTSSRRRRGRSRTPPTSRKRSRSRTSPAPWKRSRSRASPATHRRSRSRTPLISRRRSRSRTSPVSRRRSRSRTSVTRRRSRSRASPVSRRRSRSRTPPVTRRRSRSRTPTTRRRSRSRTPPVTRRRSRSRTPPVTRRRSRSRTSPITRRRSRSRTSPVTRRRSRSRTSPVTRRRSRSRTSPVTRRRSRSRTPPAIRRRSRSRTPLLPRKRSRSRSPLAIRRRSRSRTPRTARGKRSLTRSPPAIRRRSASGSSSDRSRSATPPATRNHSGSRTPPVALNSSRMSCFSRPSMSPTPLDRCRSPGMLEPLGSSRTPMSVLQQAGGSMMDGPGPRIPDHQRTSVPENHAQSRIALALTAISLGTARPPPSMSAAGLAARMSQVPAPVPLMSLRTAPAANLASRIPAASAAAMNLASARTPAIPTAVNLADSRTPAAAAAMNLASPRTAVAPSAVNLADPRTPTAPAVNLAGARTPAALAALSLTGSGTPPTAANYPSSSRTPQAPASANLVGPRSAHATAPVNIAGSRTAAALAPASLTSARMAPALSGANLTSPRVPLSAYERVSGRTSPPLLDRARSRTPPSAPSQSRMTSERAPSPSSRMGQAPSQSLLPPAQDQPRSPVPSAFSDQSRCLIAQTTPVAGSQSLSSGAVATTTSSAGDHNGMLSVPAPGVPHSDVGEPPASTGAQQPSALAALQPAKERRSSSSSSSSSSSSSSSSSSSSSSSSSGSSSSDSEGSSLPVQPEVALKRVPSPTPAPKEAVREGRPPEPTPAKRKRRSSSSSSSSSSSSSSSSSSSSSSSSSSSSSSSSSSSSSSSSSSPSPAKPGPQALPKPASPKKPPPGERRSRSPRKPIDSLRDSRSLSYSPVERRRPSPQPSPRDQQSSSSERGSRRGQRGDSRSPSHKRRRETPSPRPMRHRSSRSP
# UniProt O15270: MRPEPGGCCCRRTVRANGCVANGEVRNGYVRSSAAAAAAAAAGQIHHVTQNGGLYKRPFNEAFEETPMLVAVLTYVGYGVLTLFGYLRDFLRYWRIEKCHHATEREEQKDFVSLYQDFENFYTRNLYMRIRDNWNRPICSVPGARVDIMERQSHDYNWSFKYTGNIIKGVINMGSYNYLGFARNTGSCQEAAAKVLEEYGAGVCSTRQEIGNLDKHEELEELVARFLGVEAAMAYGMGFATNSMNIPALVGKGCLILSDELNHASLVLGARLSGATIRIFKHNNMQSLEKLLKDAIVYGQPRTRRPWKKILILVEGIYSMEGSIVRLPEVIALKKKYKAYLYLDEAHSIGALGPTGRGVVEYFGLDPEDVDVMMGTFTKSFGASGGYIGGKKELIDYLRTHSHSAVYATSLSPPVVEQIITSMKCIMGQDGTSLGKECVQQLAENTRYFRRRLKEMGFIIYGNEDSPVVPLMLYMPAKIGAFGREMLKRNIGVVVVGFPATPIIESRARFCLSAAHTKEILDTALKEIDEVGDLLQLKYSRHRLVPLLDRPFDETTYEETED
# UniProt Q9UQ90: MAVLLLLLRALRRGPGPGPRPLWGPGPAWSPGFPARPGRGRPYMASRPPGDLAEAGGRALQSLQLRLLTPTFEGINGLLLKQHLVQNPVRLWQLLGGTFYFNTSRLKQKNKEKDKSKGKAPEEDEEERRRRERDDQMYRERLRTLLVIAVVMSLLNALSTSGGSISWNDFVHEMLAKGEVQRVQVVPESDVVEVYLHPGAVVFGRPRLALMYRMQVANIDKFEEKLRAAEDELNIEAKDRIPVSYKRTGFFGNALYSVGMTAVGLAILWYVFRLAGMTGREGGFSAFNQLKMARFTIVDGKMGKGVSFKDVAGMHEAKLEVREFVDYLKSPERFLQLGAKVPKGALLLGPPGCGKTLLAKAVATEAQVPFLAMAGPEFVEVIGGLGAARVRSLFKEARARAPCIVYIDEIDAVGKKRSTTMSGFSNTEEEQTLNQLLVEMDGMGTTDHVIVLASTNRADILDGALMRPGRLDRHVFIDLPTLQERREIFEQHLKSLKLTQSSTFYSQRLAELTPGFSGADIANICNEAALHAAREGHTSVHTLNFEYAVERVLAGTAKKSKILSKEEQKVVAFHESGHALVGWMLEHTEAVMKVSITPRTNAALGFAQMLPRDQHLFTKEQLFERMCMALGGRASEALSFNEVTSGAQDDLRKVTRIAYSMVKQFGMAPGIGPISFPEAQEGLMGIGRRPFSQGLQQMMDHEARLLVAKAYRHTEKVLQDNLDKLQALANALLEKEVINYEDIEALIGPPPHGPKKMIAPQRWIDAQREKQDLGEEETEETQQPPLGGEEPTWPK
# UniProt P78362, whole entry, looked up: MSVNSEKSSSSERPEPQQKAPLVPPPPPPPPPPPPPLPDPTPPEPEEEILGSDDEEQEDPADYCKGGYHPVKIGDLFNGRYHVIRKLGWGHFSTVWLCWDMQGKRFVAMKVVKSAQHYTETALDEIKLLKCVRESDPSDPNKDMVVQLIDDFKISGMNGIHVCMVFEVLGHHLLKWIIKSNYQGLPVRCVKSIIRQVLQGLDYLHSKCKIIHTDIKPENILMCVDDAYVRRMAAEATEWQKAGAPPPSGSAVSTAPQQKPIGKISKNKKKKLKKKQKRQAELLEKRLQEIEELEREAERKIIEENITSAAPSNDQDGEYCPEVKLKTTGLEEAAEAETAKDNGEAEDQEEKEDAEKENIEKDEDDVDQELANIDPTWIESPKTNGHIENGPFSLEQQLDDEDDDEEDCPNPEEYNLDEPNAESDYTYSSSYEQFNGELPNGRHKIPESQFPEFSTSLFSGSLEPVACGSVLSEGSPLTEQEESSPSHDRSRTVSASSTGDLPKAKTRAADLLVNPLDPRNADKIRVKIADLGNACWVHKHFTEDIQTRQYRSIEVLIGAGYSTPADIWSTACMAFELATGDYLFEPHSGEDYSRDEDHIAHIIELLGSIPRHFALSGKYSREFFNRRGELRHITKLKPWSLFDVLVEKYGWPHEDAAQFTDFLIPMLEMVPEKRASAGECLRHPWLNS
# UniProt Q9NYA1, whole entry, looked up: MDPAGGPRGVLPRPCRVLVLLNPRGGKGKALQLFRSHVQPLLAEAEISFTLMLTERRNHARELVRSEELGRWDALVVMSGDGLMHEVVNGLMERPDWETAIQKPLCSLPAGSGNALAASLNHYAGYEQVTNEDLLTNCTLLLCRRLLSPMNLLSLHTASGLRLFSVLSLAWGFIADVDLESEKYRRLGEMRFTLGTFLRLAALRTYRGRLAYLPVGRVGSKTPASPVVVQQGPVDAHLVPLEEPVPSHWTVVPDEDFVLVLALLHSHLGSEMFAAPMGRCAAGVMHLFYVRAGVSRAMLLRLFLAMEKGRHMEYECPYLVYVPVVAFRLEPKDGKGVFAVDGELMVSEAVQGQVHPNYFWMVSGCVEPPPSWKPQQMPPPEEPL
# The list shows a part of the results.
# Tests used:
# Test in all cases: log2 fold change, soluble protein after heating vs DMSO (PISA); higher = thermal stabilisation; K562 cells, 10 uM, 30 min; active = over 0.2 and 3.5 SD of the protein, either way, in both replicates (recomputed)
# [1] = compound: CN1CCN(CCOc2cc(OC3CCOCC3)c3c(Nc4c(Cl)ccc5c4OCO5)ncnc3c2)CC1 [saracatinib]
# Outline: (§1)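 For each measurement, 10 μM compound was applied for 30 min to K562 cells at 2×10^6 cells/mL. Aliquots were heated for 3 min across 48°C-58°C, pooled, and extracted in PBS with 0.5% NP-40 at 4°C; the supernatant after 21,000xg for 90 min was soluble protein. This was quantified by TMTpro 16plex LC-MS/MS with channel sums equalised, and thermal stability was reported relative to control samples from duplicates, on a log2 fold-change scale.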
# [2] = compound: CN1CCN(c2nc(C3=C(c4c[nH]c5ccccc45)C(=O)NC3=O)c3ccccc3n2)CC1 [sotrastaurin]
# Outline: as §1
# [3] = compound: CN1CC[C@H](c2c(O)cc(O)c3c(=O)cc(-c4ccccc4Cl)oc23)[C@H](O)C1 [alvocidib]
# Outline: as §1
# [4] = compound: CN1CCc2c(c3ccccc3n2Cc2ccc(C(=O)NO)cc2)C1 [Tubastatin A]
# Outline: as §1
# [5] = compound: CNC(=O)C1=CC=CC=C1NC2=NC(=NC=C2Cl)NC3=C(C=C(C=C3)N4CCOCC4)OC
# Outline: as §1
# [6] = compound: CNC(=O)c1ccc(Nc2ncc(C(F)(F)F)c(NCc3nccnc3N(C)S(C)(=O)=O)n2)cc1 [defactinib]
# Outline: as §1
# [7] = compound: CNCc1ccc(-c2[nH]c3cc(F)cc4c3c2CCNC4=O)cc1 [rucaparib]
# Outline: as §1
# [8] = compound: CNc1nc(-c2ccc3c(N)n[nH]c3c2)cc(N2C[C@@H](C(=O)NC3CCCCC3)CC[C@H]2C)n1
# Outline: as §1
# [9] = compound: COC(=O)N[C@@H](C)CNc1nccc(-c2cn(C(C)C)nc2-c2cc(Cl)cc(NS(C)(=O)=O)c2F)n1 [encorafenib]
# Outline: as §1
# [10] = compound: COC(=O)[C@H](CCSC)NC(=O)C1=C(C=C(C=C1)NC[C@H](CS)N)C2=CC=CC=C2
# Outline: as §1
Target,log2 fold change [1],log2 fold change [2],log2 fold change [3],log2 fold change [4],log2 fold change [5],log2 fold change [6],log2 fold change [7],log2 fold change [8],log2 fold change [9],log2 fold change [10]
SPIN1 (UniProt Q9Y657),inactive: 0.02,inactive: -0.025,inactive: 0.005,inactive: -0.158,inactive: 0.031,inactive: -0.045,inactive: 0.019,inactive: -0.003,inactive: -0.032,inactive: 0.044
SRA1 (UniProt Q9HD15),inactive: 0.01,inactive: -0.005,inactive: -0.012,inactive: 0.028,inactive: -0.025,inactive: -0.059,inactive: -0.02,inactive: -0.021,inactive: -0.044,inactive: 0.009
SRP19 (UniProt P09132),inactive: 0.001,inactive: -0.019,inactive: 0.003,inactive: 0.131,inactive: -0.035,inactive: -0.043,inactive: 0.099,inactive: 0.033,inactive: 0.097,inactive: 0.002
SPRYD7 (UniProt Q5W111),inactive: -0.003,inactive: -0.05,inactive: -0.089,inactive: -0.03,inactive: 0,inactive: -0.07,inactive: -0.022,inactive: 0.112,inactive: -0.01,inactive: -0.064
SPNS1 (UniProt Q9H2V7),inactive: 0.088,inactive: -0.05,inactive: 0.005,inactive: -0.086,inactive: 0.008,inactive: -0.015,inactive: 0.019,inactive: -0.101,inactive: -0.023,inactive: -0.011
SPN (UniProt P16150),inactive: -0.005,inactive: 0.189,inactive: 0.007,inactive: 0.001,inactive: -0.044,inactive: 0.006,inactive: -0.016,inactive: 0.058,inactive: -0.007,inactive: 0.044
SSBP1 (UniProt Q04837),inactive: -0.031,inactive: 0.038,inactive: 0.053,inactive: 0.032,inactive: -0.001,inactive: 0.045,inactive: 0.013,inactive: -0.022,inactive: -0.001,inactive: 0.017
SRRM2 (UniProt Q9UQ35),inactive: -0.026,inactive: -0.048,active: -0.412,inactive: 0.093,inactive: -0.264,inactive: -0.298,inactive: 0.013,inactive: -0.009,inactive: -0.013,inactive: 0.047
STAT2 (UniProt P52630),inactive: -0.057,inactive: -0.18,inactive: -0.346,inactive: 0.295,inactive: -0.047,inactive: 0,inactive: 0.328,inactive: 0.112,inactive: 0.096,inactive: -0.279
STAG1 (UniProt Q8WVM7),inactive: -0.016,inactive: -0.021,inactive: -0.035,inactive: 0.04,inactive: -0.031,inactive: -0.08,inactive: -0.116,inactive: -0.011,inactive: 0.042,inactive: -0.055
SPRY4 (UniProt Q9C004),inactive: 0.087,inactive: -0.04,inactive: 0.006,inactive: 0.045,inactive: -0.004,inactive: -0.005,inactive: -0.038,inactive: -0.071,inactive: 0.023,inactive: 0.019
SPCS3 (UniProt P61009),inactive: -0.02,inactive: 0.013,inactive: 0.017,inactive: -0.03,inactive: 0.032,inactive: -0.005,inactive: 0.005,inactive: -0.01,inactive: 0.001,inactive: 0.002
SRGN (UniProt P10124),inactive: 0.271,inactive: 0.248,inactive: -0.019,inactive: 0.037,inactive: 0.139,inactive: -0.118,inactive: 0.058,inactive: 0.044,inactive: 0.032,inactive: -0.136
SPTBN2 (UniProt O15020),inactive: 0.04,inactive: -0.14,inactive: -0.105,inactive: 0.059,inactive: 0.045,inactive: -0.075,inactive: 0.064,inactive: -0.086,inactive: 0.124,inactive: -0.074
SPTLC1 (UniProt O15269),inactive: -0.016,inactive: -0.014,inactive: -0.076,inactive: 0.027,inactive: 0.019,inactive: -0.079,inactive: 0.017,inactive: 0.044,inactive: 0.016,inactive: -0.064
SQLE (UniProt Q14534),inactive: 0.071,inactive: 0.015,inactive: -0.056,inactive: 0.102,inactive: 0,inactive: -0.039,inactive: 0.017,inactive: 0.075,inactive: -0.048,inactive: -0.018
"SPCS1, A0A5F9YFS9",inactive: -0.04,inactive: -0.042,inactive: -0.256,inactive: 0.105,inactive: -0.021,inactive: -0.079,inactive: -0.035,inactive: 0.041,inactive: -0.074,inactive: -0.055
SPATA33 isoform 2 (UniProt Q96N06),inactive: 0.11,inactive: 0.022,inactive: 0.018,inactive: 0.035,inactive: -0.06,inactive: 0.021,inactive: 0.022,inactive: -0.017,inactive: 0.013,inactive: -0.173
SPTLC2 (UniProt O15270),inactive: 0.029,inactive: 0.021,inactive: -0.048,inactive: 0.005,inactive: 0.028,inactive: -0.038,inactive: -0.079,inactive: 0.026,inactive: 0.002,inactive: 0.015
STAMBP (UniProt O95630),inactive: -0.117,inactive: -0.095,inactive: -0.111,inactive: 0.033,inactive: 0.101,inactive: -0.093,inactive: 0.068,inactive: -0.009,inactive: 0.02,inactive: -0.038
STAG2 (UniProt Q8N3U4),inactive: 0.021,inactive: -0.02,inactive: -0.1,inactive: 0.017,inactive: -0.018,inactive: -0.106,inactive: -0.031,inactive: -0.005,inactive: 0.051,inactive: -0.003
SRSF5 (UniProt Q13243),inactive: -0.1,inactive: 0.002,inactive: 0.098,inactive: 0.175,inactive: -0.079,inactive: 0.195,inactive: 0.263,inactive: 0.081,inactive: 0.171,inactive: 0.031
SPG7 (UniProt Q9UQ90),inactive: -0.029,inactive: 0.036,inactive: 0.036,inactive: -0.008,inactive: 0.004,inactive: -0.025,inactive: -0.02,inactive: -0.02,inactive: 0.004,inactive: -0.038
SRPK2 isoform 2 (UniProt P78362),inactive: -0.074,inactive: -0.049,inactive: 0.34,inactive: 0.145,inactive: -0.011,inactive: 0.361,inactive: 0.278,inactive: 0.146,inactive: 0.061,inactive: -0.057
SPATA5L1 (UniProt Q9BVQ7),inactive: -0.016,inactive: 0.017,inactive: 0.037,inactive: -0.036,inactive: -0.019,inactive: 0.039,inactive: 0.014,inactive: -0.036,inactive: 0.001,inactive: 0.014
SRP9 (UniProt P49458),inactive: -0.048,inactive: 0,inactive: 0.271,inactive: 0.087,inactive: 0.018,inactive: 0.28,inactive: 0.209,inactive: 0.058,inactive: 0.145,inactive: 0.034
SPHK1 isoform 2 (UniProt Q9NYA1),inactive: -0.018,inactive: 0.199,inactive: -0.07,inactive: -0.023,inactive: 0.01,inactive: -0.153,inactive: 0.013,inactive: -0.036,inactive: -0.026,inactive: -0.089
SRP14 (UniProt P37108),inactive: -0.059,inactive: 0,inactive: 0.279,inactive: 0.105,inactive: -0.037,inactive: 0.266,inactive: 0.349,inactive: 0.105,inactive: 0.127,inactive: 0.045
SSNA1 (UniProt O43805),inactive: 0.003,inactive: 0.029,inactive: -0.008,inactive: -0.01,inactive: -0.008,inactive: 0.005,inactive: -0.052,inactive: -0.096,inactive: -0.025,inactive: 0.021
SRM (UniProt P19623),inactive: 0.024,inactive: 0.027,inactive: -0.076,inactive: -0.019,inactive: 0.036,inactive: -0.023,inactive: 0.022,inactive: 0.04,inactive: -0.026,inactive: 0.017

# Exported with bars between the fields: part of the list above.
Target | log2 fold change [1] | log2 fold change [2] | log2 fold change [3] | log2 fold change [4] | log2 fold change [5] | log2 fold change [6] | log2 fold change [7] | log2 fold change [8] | log2 fold change [9] | log2 fold change [10]
SPTBN2 (UniProt O15020) | inactive: 0.04 | inactive: -0.14 | inactive: -0.105 | inactive: 0.059 | inactive: 0.045 | inactive: -0.075 | inactive: 0.064 | inactive: -0.086 | inactive: 0.124 | inactive: -0.074
SPTLC1 (UniProt O15269) | inactive: -0.016 | inactive: -0.014 | inactive: -0.076 | inactive: 0.027 | inactive: 0.019 | inactive: -0.079 | inactive: 0.017 | inactive: 0.044 | inactive: 0.016 | inactive: -0.064
